The results in this text go back to patent publication US20110201109.

For series [1], the target named is T1, Ronin (Thap11) (Mus musculus) (UniProt Q9JJD0).
T1 sequence (looked up, limits assumed): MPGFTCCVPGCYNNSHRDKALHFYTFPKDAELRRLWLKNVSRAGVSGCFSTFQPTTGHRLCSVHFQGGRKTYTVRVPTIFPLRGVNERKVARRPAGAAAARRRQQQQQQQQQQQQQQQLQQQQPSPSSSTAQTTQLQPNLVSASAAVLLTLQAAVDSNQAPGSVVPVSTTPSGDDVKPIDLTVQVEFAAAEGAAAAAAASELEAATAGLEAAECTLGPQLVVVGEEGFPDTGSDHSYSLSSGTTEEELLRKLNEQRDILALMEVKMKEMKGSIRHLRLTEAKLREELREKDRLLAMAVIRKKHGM
Nature of the series: EMSA. The following applies: nuclear extract; complex inhibited by anti-FLAG antibody; protein in an extract; label: 5'-biotin.

Series [2] has as its target T1, Ronin (Thap11) (Mus musculus). The series can be described thus: competition with a labelled probe. The following applies: protein in an extract, variant of 3x sequence, biotin-labelled probe.

Results from cells or extracts need not show a direct contact. Tags and fusion partners may be left off the protein sequences shown.

With “ATCAACTGTATACAAGCAGCTAGGACAGCACCCTAATGTC (double strand) [3x sequence, biotin-labelled probe]”, the binding result in series [1] is reported as “binds”.
As to “TGTATTACAAGCTAGGACAGCACCT (double strand) [3x sequence, unlabelled double-stranded competitor]”, the binding result in series [2] is “binds”.
Regarding “TGTATTACAAGCTAGGACAGCACCT [3x sequence, unlabelled single-stranded competitor]”, in series [2] (unlabelled single-stranded 3x inhibits the gel shift, strand not stated, single-stranded DNA), the binding result is given as “binds”.
